Some of the results follow. The data scatter; read single values as rough.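 Many melting curves are irregular; where none melted, Tm was taken as 64 °C.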
Compound: CCc1cnccc1C(=O)Nc1cc2c(cc1F)NC(=O)CC2
Experiment: melting temperature shift (DMSO Tm minus MBE1-treated Tm) in cellular thermal proteome profiling; higher = less thermal stabilization by MBE1 (negative = stabilized by MBE1)
Conditions: A375

Sequences of proteins named here, by UniProt entry; tags and fusion partners are left off. A change or cut given only in a name is not applied to a line headed by its entry.
UniProt Q86V85: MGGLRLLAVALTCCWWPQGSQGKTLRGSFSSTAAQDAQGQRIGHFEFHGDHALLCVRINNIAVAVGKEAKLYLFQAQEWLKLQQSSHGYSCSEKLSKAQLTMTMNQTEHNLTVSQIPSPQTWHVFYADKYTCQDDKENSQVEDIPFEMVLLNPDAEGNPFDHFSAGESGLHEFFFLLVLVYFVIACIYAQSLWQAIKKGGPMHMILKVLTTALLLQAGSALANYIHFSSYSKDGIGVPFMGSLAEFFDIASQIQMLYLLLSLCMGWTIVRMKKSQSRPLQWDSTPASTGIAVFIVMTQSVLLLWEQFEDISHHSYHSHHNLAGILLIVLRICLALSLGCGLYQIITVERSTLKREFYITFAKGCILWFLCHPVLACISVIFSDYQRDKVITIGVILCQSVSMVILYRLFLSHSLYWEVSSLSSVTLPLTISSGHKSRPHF
UniProt Q7Z5L9: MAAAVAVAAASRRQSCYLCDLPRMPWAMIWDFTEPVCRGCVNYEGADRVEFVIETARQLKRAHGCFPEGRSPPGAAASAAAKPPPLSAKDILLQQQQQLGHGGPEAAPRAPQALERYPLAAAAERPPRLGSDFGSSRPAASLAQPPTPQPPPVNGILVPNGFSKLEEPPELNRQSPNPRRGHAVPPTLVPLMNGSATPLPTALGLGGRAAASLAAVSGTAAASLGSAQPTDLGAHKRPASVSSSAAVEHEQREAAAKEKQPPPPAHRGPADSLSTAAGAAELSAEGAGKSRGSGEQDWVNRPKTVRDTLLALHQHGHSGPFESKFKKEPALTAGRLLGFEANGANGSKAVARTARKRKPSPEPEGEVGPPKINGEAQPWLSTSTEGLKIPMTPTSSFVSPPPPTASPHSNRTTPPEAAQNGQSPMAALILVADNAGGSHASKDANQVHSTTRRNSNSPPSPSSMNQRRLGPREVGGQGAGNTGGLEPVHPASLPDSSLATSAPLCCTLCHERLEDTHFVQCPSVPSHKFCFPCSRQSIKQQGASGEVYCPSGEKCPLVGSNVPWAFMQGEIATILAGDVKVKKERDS
UniProt Q7L4I2: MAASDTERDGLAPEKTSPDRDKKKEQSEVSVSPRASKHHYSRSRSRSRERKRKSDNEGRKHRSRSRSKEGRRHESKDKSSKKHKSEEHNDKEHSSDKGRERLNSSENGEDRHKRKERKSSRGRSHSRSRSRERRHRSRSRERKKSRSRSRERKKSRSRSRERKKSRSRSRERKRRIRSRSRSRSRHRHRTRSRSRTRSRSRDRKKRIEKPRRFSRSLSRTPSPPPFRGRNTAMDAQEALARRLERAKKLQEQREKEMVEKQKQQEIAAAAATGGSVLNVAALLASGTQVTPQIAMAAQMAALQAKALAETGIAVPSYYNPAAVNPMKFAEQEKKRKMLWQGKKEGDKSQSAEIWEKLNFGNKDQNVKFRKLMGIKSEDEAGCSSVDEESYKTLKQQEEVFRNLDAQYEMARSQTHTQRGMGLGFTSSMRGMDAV
UniProt Q6UWP2: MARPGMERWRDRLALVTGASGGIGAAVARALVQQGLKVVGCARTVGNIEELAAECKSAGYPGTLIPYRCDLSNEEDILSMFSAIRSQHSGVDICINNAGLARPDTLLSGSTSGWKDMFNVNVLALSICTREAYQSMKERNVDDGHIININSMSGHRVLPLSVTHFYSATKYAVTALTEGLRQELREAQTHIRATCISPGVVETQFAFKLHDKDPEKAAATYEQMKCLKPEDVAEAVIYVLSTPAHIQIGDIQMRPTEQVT
UniProt Q86U90: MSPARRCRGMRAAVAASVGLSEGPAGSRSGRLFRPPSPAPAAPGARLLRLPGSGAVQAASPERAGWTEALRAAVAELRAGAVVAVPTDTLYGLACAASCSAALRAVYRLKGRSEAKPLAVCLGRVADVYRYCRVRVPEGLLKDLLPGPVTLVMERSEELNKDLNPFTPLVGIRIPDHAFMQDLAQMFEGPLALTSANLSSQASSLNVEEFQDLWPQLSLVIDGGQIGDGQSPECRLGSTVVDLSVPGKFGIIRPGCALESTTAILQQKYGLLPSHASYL
UniProt Q6S8J3, whole entry: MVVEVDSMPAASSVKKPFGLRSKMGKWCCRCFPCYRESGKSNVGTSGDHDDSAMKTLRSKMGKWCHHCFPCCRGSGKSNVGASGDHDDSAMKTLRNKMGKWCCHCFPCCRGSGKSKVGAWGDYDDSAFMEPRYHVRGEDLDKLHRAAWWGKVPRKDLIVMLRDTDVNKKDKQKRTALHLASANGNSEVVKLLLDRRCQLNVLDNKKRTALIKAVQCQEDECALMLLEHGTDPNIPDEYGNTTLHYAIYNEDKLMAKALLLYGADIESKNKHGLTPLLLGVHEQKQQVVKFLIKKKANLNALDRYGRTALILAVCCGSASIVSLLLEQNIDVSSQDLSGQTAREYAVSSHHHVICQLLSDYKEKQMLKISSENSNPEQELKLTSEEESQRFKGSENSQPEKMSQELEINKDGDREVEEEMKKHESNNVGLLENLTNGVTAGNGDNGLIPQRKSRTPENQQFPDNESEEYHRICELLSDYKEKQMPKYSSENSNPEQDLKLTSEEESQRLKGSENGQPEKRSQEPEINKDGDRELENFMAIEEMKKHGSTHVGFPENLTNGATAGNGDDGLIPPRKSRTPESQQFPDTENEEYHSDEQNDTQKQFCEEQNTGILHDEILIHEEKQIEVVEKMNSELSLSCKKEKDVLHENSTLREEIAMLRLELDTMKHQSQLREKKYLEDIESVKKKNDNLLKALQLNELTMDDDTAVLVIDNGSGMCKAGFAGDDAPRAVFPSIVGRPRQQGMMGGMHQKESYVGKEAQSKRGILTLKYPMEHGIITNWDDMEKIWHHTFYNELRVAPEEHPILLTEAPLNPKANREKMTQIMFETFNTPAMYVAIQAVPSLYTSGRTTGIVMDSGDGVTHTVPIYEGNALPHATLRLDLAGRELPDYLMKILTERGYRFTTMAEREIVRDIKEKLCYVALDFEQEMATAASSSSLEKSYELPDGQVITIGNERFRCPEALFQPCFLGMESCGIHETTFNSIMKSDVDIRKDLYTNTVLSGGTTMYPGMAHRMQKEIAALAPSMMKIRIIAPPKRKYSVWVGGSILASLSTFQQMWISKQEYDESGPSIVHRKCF
UniProt Q7Z6E9: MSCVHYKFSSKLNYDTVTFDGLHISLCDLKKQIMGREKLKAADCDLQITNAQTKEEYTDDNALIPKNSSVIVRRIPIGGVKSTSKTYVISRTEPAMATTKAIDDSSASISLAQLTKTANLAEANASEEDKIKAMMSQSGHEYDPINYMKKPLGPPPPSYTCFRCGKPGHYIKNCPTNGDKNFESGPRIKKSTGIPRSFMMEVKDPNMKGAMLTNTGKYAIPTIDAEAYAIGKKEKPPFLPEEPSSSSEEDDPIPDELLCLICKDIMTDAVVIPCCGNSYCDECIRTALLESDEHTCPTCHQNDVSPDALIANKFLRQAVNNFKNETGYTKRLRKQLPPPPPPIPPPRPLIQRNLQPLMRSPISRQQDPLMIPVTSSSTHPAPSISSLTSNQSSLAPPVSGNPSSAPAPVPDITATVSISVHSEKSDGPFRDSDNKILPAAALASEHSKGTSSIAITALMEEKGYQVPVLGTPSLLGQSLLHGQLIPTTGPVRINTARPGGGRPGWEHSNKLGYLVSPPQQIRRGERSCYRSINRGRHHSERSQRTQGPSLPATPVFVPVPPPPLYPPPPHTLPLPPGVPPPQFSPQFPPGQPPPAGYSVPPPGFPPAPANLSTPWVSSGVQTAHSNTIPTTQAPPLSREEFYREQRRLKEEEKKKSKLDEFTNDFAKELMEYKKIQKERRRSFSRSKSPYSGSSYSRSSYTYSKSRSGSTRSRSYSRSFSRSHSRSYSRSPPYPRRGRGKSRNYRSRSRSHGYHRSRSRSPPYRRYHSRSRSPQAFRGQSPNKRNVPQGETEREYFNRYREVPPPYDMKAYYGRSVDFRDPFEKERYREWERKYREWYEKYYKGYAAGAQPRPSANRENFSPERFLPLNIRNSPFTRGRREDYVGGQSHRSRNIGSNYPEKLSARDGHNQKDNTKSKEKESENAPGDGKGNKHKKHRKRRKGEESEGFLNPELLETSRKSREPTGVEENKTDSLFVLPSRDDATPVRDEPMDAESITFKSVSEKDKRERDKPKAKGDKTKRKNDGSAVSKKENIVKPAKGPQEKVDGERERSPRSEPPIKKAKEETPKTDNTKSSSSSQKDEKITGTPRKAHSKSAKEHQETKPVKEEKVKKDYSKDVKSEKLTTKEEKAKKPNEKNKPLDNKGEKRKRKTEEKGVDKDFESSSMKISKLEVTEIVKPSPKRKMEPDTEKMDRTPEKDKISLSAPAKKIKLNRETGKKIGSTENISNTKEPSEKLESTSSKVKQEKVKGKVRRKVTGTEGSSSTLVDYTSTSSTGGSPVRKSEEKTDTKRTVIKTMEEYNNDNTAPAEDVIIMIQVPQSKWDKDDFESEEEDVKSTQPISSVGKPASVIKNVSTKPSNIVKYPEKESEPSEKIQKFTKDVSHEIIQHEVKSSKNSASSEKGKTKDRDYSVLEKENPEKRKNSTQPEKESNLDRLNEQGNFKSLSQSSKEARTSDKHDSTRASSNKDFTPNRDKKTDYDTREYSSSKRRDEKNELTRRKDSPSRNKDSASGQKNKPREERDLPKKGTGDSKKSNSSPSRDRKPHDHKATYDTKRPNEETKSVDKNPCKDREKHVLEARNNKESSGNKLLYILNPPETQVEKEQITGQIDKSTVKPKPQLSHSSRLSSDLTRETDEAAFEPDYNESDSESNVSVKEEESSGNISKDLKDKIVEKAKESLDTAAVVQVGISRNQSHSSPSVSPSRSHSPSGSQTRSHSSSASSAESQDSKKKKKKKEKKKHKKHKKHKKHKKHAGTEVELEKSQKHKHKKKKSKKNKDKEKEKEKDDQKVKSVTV
UniProt Q7L513: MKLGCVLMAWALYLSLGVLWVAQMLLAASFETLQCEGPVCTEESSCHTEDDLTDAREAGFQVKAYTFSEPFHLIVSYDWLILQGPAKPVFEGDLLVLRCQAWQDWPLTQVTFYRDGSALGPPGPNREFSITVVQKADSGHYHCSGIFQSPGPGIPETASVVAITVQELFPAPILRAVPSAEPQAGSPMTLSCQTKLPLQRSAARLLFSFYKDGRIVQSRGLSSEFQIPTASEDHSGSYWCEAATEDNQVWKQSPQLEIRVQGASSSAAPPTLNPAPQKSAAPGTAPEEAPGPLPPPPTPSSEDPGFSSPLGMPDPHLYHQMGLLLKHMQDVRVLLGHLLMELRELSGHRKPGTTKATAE
UniProt Q86UP2: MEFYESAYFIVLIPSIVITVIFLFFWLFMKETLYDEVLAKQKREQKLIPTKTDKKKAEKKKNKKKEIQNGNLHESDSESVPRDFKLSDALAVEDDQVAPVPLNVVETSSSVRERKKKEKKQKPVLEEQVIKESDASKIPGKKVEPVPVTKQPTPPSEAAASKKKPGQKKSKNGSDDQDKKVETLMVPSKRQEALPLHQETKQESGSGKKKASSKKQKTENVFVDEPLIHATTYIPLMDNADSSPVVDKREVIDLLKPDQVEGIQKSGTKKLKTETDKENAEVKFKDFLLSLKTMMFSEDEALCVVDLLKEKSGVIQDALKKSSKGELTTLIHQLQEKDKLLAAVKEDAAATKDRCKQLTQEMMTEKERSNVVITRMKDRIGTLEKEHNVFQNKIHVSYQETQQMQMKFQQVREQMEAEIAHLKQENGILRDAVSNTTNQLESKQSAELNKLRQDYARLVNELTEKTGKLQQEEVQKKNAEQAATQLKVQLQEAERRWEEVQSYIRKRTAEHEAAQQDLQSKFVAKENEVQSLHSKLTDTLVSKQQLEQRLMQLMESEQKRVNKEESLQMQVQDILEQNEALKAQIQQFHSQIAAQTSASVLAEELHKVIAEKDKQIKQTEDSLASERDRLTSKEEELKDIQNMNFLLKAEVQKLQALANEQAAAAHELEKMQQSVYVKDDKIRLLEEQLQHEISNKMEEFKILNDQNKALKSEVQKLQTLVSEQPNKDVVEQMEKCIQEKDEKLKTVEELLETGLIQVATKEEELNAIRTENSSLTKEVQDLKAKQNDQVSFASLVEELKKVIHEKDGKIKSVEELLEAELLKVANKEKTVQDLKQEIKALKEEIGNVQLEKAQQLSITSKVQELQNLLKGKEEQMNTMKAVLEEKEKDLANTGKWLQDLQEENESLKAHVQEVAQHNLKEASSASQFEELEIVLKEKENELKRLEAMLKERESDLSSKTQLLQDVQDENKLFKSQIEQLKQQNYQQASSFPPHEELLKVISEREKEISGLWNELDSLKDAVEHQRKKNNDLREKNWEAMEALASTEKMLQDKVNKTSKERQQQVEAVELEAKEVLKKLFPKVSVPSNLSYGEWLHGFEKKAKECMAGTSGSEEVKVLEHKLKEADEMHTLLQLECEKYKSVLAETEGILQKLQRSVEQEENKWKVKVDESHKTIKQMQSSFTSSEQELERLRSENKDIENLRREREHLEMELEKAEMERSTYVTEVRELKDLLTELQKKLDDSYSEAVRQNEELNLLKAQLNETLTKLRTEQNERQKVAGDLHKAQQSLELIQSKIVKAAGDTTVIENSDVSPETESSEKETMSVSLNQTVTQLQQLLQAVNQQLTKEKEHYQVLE

| Target | melting temperature shift (MBE1 concentration: 100 nM) | melting temperature shift (MBE1 concentration: 1 uM) |
| --- | --- | --- |
| UniProt Q86V85 | 0.795 °C | 0.534 °C |
| UniProt Q7Z4F1 | -1.54 °C | -0.47 °C |
| UniProt Q71F56 | 0.287 °C | -0.647 °C |
| PTAR1 (UniProt Q7Z6K3) | -0.174 °C | 0.955 °C |
| PHLDB2 (UniProt Q86SQ0) | -0.441 °C | -0.205 °C |
| SH3BP5L (UniProt Q7L8J4) | 1.33 °C | -0.0671 °C |
| POGZ (UniProt Q7Z3K3) | -0.694 °C | -0.355 °C |
| UniProt Q71F23 | -3.29 °C | -1.52 °C |
| THADA (UniProt Q6YHU6) | 1.26 °C | 0.879 °C |
| FBXO38 (UniProt Q6PIJ6) | 0.11 °C | 0.959 °C |
| TSEN54 (UniProt Q7Z6J9) | 0.256 °C | -1.05 °C |
| UniProt Q71UI9 | 0.0961 °C | -0.625 °C |
| UniProt Q86UP3 | -4.5 °C | -1.58 °C |
| SEZ6L2 (UniProt Q6UXD5) | -1.87 °C | 0.154 °C |
| ARHGEF18 (UniProt Q6ZSZ5) | -0.593 °C | -0.941 °C |
| PACS1 (UniProt Q6VY07) | 0.434 °C | 1.09 °C |
| TRAF7 (UniProt Q6Q0C0) | 0.641 °C | 0.299 °C |
| GPRIN1 (UniProt Q7Z2K8) | -1.92 °C | -0.885 °C |
| BCOR (UniProt Q6W2J9) | -2.16 °C | -1.33 °C |
| SYVN1 (UniProt Q86TM6) | 0.696 °C | -4.58 °C |
| UniProt Q6ZT21 | -2.51 °C | 1.16 °C |
| ZC3H18 (UniProt Q86VM9) | -2.55 °C | 0.227 °C |
| MRPL21 (UniProt Q7Z2W9) | 0.446 °C | 1.42 °C |
| UniProt Q6PI98 | 0.0833 °C | -0.852 °C |
| UniProt Q6ZVK8 | 0.892 °C | 1.66 °C |
| IRF2BP2 (UniProt Q7Z5L9) | -2.03 °C | -0.961 °C |

| Target | melting temperature shift (MBE1 concentration: 100 nM) | melting temperature shift (MBE1 concentration: 1 uM) |
| --- | --- | --- |
| RAPH1 (UniProt Q70E73) | -0.324 °C | 0.58 °C |
| TTC37 (UniProt Q6PGP7) | -1.04 °C | -0.848 °C |
| RSRC2 (UniProt Q7L4I2) | -3.67 °C | -0.458 °C |
| VPS13C (UniProt Q709C8) | -1.12 °C | 0.22 °C |
| TRMT11 (UniProt Q7Z4G4) | -0.295 °C | 0.258 °C |
| MON2 (UniProt Q7Z3U7) | 0.055 °C | -0.421 °C |
| KIF21A (UniProt Q7Z4S6) | 0.525 °C | 0 °C |
| DHRS11 (UniProt Q6UWP2) | 0.402 °C | 0.423 °C |
| CWC27 (UniProt Q6UX04) | 0.274 °C | -0.456 °C |
| TRIM65 (UniProt Q6PJ69) | -0.895 °C | -0.527 °C |
| NUFIP2 (UniProt Q7Z417) | -1.5 °C | -0.9 °C |
| FASTKD5 (UniProt Q7L8L6) | -0.333 °C | -0.0577 °C |
| YTHDF3 (UniProt Q7Z739) | -0.121 °C | 0.372 °C |
| UniProt Q86UB9 | -1.46 °C | -0.838 °C |
| UniProt Q7Z3D6 | -0.161 °C | 0.262 °C |
| PARS2 (UniProt Q7L3T8) | -1.48 °C | 0.342 °C |
| WDR82 (UniProt Q6UXN9) | -0.926 °C | 0.574 °C |
| RAB11FIP1 (UniProt Q6WKZ4) | 0.305 °C | -0.116 °C |
| PGM2L1 (UniProt Q6PCE3) | -0.436 °C | 0.0604 °C |
| OGFOD3 (UniProt Q6PK18) | -1 °C | 0.689 °C |
| ATF7IP (UniProt Q6VMQ6) | -1.13 °C | -0.295 °C |
| MEPCE (UniProt Q7L2J0) | -0.706 °C | -0.212 °C |
| GPAT4 (UniProt Q86UL3) | -0.811 °C | -0.122 °C |
| NDUFAF7 (UniProt Q7L592) | -1.03 °C | -0.221 °C |
| NAPRT (UniProt Q6XQN6) | -1.47 °C | -0.419 °C |
| YRDC (UniProt Q86U90) | -0.456 °C | -0.295 °C |

| Target | melting temperature shift (MBE1 concentration: 100 nM) | melting temperature shift (MBE1 concentration: 1 uM) |
| --- | --- | --- |
| UniProt Q6S8J3 | -0.105 °C | 0.148 °C |
| NCEH1 (UniProt Q6PIU2) | -0.856 °C | -0.98 °C |
| PRPF39 (UniProt Q86UA1) | -0.404 °C | -0.0513 °C |
| UniProt Q6PCT2 | 0.659 °C | -0.403 °C |
| KDM3B (UniProt Q7LBC6) | -0.71 °C | -0.442 °C |
| MAEA (UniProt Q7L5Y9) | -0.165 °C | 0.336 °C |
| DHX30 (UniProt Q7L2E3) | 0.183 °C | -0.214 °C |
| LPCAT2 (UniProt Q7L5N7) | 0.623 °C | 0.751 °C |
| DPP8 (UniProt Q6V1X1) | -1.15 °C | 1.29 °C |
| CYB5R4 (UniProt Q7L1T6) | 0 °C | 0.223 °C |
| KDELC2 (UniProt Q7Z4H8) | -0.999 °C | 0.706 °C |
| NBEAL2 (UniProt Q6ZNJ1) | -0.78 °C | -0.441 °C |
| UBE2Q1 (UniProt Q7Z7E8) | 0.293 °C | -0.415 °C |
| UniProt Q6UW78 | 0.055 °C | 0.238 °C |
| UniProt Q86US8 | -1.18 °C | -0.0753 °C |
| AAGAB (UniProt Q6PD74) | -1.42 °C | -0.302 °C |
| DDX46 (UniProt Q7L014) | -0.739 °C | -0.64 °C |
| UniProt Q7L2Z9 | 0.611 °C | 2.2 °C |
| NAA40 (UniProt Q86UY6) | -1.14 °C | -0.32 °C |
| Q6ZMK1 (UniProt P0DTL5) | -1.47 °C | 0.369 °C |
| LARP1 (UniProt Q6PKG0) | -0.393 °C | 0.58 °C |
| SETD3 (UniProt Q86TU7) | -0.563 °C | 0.0939 °C |
| TXNDC11 (UniProt Q6PKC3) | -0.852 °C | 1.07 °C |
| TLDC1 (UniProt Q6P9B6) | -0.055 °C | 0.36 °C |
| ACAD11 (UniProt Q709F0) | -2.04 °C | 0.25 °C |
| ZFYVE16 (UniProt Q7Z3T8) | -0.537 °C | -0.0402 °C |

| Target | melting temperature shift (MBE1 concentration: 100 nM) | melting temperature shift (MBE1 concentration: 1 uM) |
| --- | --- | --- |
| RBBP6 (UniProt Q7Z6E9) | -1.67 °C | -1.09 °C |
| UniProt Q7Z7A1 | -2.54 °C | -0.215 °C |
| UniProt Q86UD0 | -1.1 °C | -1.03 °C |
| RANBP10 (UniProt Q6VN20) | -0.256 °C | -0.0794 °C |
| UniProt Q6ZMZ3 | -1.72 °C | -1.34 °C |
| NLRX1 (UniProt Q86UT6) | -1.21 °C | 1.25 °C |
| UniProt Q6RI45 | -5.02 °C | 0.812 °C |
| UniProt Q7L513 | -0.47 °C | 0.906 °C |
| LRSAM1 (UniProt Q6UWE0) | 0.165 °C | 0.134 °C |
| DARS2 (UniProt Q6PI48) | -1.59 °C | 0.561 °C |
| TRAPPC11 (UniProt Q7Z392) | 1.68 °C | 0.775 °C |
| UniProt Q6ZRS2 | -0.871 °C | -0.843 °C |
| UniProt Q6PJI9 | 0.745 °C | 1.11 °C |
| FAM65A (UniProt Q6ZS17) | 0.409 °C | 0.212 °C |
| UniProt Q6PJW8 | 1 °C | 2.31 °C |
| HACD2 (UniProt Q6Y1H2) | 0.127 °C | -0.355 °C |
| GALNT7 (UniProt Q86SF2) | -0.704 °C | 0.288 °C |
| CYFIP1 (UniProt Q7L576) | 0.44 °C | 0.421 °C |
| UniProt Q7Z7A4 | 1.03 °C | 0.782 °C |
| KTN1 (UniProt Q86UP2) | 0.678 °C | 0.226 °C |
| UniProt Q6SPF0 | -0.288 °C | -0.833 °C |
| CRTC1 (UniProt Q6UUV9) | -0.577 °C | 1.37 °C |
| UniProt Q86UT8 | 1.84 °C | 0.00611 °C |
| UniProt Q7Z589 | -5.71 °C | -4.49 °C |
| UniProt Q6ZTW0 | -0.588 °C | 0.327 °C |
| WAPL (UniProt Q7Z5K2) | -0.621 °C | -0.352 °C |

Whole records from above. Values in the order: melting temperature shift (MBE1 concentration: 100 nM) | melting temperature shift (MBE1 concentration: 1 uM)
DDX46 (UniProt Q7L014) in the list: -0.739 °C | -0.64 °C
GPRIN1 (UniProt Q7Z2K8) in the list: -1.92 °C | -0.885 °C

Source: the supplement of paper PMC12595434, “Development of retinoid nuclear receptor pathway antagonists through targeting aldehyde dehydrogenase 1A3” (iScience, 2025)
